PubChem BioAssay AID1224826, NIAID, 2016

- Screen: 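Regulators of Tlr4 signalling leading to Tnf-alpha expression in macrophages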 (primary screen)
- Cell system: RAW264.7 G9 macrophages from mouse bearing reporters for p65 (GFP) and the Tnf promoter (mCherry)
- Knock-down reagent: siRNA pool against mouse genes, 100 nM
- Time to read-out: 16 h of LPS stimulation, after 2 days of siRNA transfection
- Challenge: bacterial lipopolysaccharide (Salmonella minnesota R595), 10 ng/ml
- Measured: 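Imaged Tnf reporter mCherry in nuclei, minus background, normalised per plate to the median and expressed as robust z-scores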
- Reading the numbers: Tnf reporter robust z-score: higher = stronger Tnf promoter reporter signal after LPS; Tnf reporter intensity: higher = stronger Tnf promoter reporter signal
- Active means: 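a well counts as active at a score of -1.3 or below (Tlr4 knock-down control median) or above 3 (raised signal); controls and wells holding fewer than 50 cells are excluded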
- Calls: active = Tnf reporter clearly lowered or raised; inactive = no clear change in Tnf reporter
The whole screen tested about 17,000 reagents; below is a part drawn at random. About 1,110 of all reagents (6.6%) count as active. 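Active means lowered or raised reporter signal; replicate intensities are raw and not normalised per plate.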 Entries without a mark were called inactive. The numbers tell different reagents against one gene apart. Further read-outs or replicates are left out here. No sequences are given here.

no.	target gene	pool no.	Tnf reporter robust z-score	fewer than 50 cells in well	Tnf reporter intensity, replicate 1
1	Arhgap27 (GeneID 544817)	1	-0.12	enough cells in well	147
2	Arhgap27 (GeneID 544817)	2		fewer than 50 cells per well; well left out of calls	142
3	Trappc12 (GeneID 217449)	1	-0.2	enough cells in well	172
4	Hdac5 (GeneID 15184)	1	-0.74	enough cells in well	176
5	Ier5l (GeneID 72500)	1	1.19	enough cells in well	336
6	Flt1 (GeneID 14254)	1	-0.33	enough cells in well	139
7	Tor3a (GeneID 30935)	1	-1.18	enough cells in well	72.8
8	Matn1 (GeneID 17180)	1	0.77	enough cells in well	340
9	Reg4 (GeneID 67709)	1	-0.09	enough cells in well	108
10	Or2f1b (GeneID 258988)	1	-1.63 (active)	enough cells in well	87.2
11	Triap1 (GeneID 69076)	1	0.36	enough cells in well	224
12	Gbp3 (GeneID 55932)	1	-0.67	enough cells in well	163
13	Utrn (GeneID 22288)	1	0.43	enough cells in well	233
14	Mrgprh (GeneID 80978)	1	-1.89 (active)	enough cells in well	84.5
15	Nppb (GeneID 18158)	1	-1.41 (active)	enough cells in well	109
16	Slc48a1 (GeneID 67739)	1		fewer than 50 cells per well; well left out of calls	182
17	Zpr1 (GeneID 22687)	1	1.38	enough cells in well	185
18	Fmo2 (GeneID 55990)	1	1.48	enough cells in well	352
19	F830045P16Rik (GeneID 228592)	1	0.24	enough cells in well	230
20	Sh3bp4 (GeneID 98402)	1	0.58	enough cells in well	264
21	Smim7 (GeneID 66818)	1	0.36	enough cells in well	192
22	Mcub (GeneID 66815)	1	-1.73 (active)	enough cells in well	89.9
23	Nsun6 (GeneID 74455)	1		fewer than 50 cells per well; well left out of calls	113
24	Ms4a19 (GeneID 69416)	1	-1.03	enough cells in well	149
25	2310022B05Rik (GeneID 69551)	1		fewer than 50 cells per well; well left out of calls	65.3

Continued (3 carried over from the part before).
no.	target gene	pool no.	Tnf reporter robust z-score	fewer than 50 cells in well	Tnf reporter intensity, replicate 1
23	Nsun6 (GeneID 74455)	1		fewer than 50 cells per well; well left out of calls	113
24	Ms4a19 (GeneID 69416)	1	-1.03	enough cells in well	149
25	2310022B05Rik (GeneID 69551)	1		fewer than 50 cells per well; well left out of calls	65.3
26	Sytl1 (GeneID 269589)	1	0.4	enough cells in well	133
27	Ubr7 (GeneID 66622)	1	-0.64	enough cells in well	135
28	Cep57l1 (GeneID 103268)	1		fewer than 50 cells per well; well left out of calls	124
29	Vmn1r232 (GeneID 171227)	1		fewer than 50 cells per well; well left out of calls	52.2
30	Clp1 (GeneID 98985)	1	-0.11	enough cells in well	222
31	Padi4 (GeneID 18602)	1		fewer than 50 cells per well; well left out of calls	160
32	Arhgap17 (GeneID 70497)	1	2.04	enough cells in well	292
33	Vsig1 (GeneID 78789)	1	0.01	enough cells in well	208
34	Sult4a1 (GeneID 29859)	1	-0.05	enough cells in well	46.3
35	Surf1 (GeneID 20930)	1	0.4	enough cells in well	338
36	Tdpoz1 (GeneID 207213)	1	3.1 (active)	enough cells in well	211
37	Dusp14 (GeneID 56405)	1	0.76	enough cells in well	285
38	Haus7 (GeneID 73738)	1	0.9	enough cells in well	422
39	Vps26b (GeneID 69091)	1	-0.14	enough cells in well	177
40	Eif3b (GeneID 27979)	1	-1.67 (active)	enough cells in well	91.9
41	4932407I05 (GeneID 224662)	1		fewer than 50 cells per well; well left out of calls	130
42	Gpatch2l (GeneID 70373)	1		fewer than 50 cells per well; well left out of calls	94.5
43	Gcm1 (GeneID 14531)	1	0.21	enough cells in well	266
44	Mmp10 (GeneID 17384)	1	0.4	enough cells in well	274
45	Cstl1 (GeneID 228756)	1	0.75	enough cells in well	275
46	Cyp4f14 (GeneID 64385)	1	-0.58	enough cells in well	122
47	Tmem123 (GeneID 71929)	1	-0.23	enough cells in well	171
48	Nrcam (GeneID 319504)	1	0.33	enough cells in well	165
49	Tmem145 (GeneID 330485)	1	-0.28	enough cells in well	195
50	Tspyl4 (GeneID 72480)	1		fewer than 50 cells per well; well left out of calls	252
51	Manba (GeneID 110173)	1	-0.18	enough cells in well	245
52	Or52e7 (GeneID 259099)	1	-0.21	enough cells in well	92.4
53	Myo9a (GeneID 270163)	1		fewer than 50 cells per well; well left out of calls	187
54	Mmaa (GeneID 109136)	1	-0.51	enough cells in well	200
55	Or10j5 (GeneID 18313)	1	1.47	enough cells in well	263
56	Pwwp3b (GeneID 245631)	1	-0.76	enough cells in well	162
57	Hsd17b7 (GeneID 15490)	1	-0.41	enough cells in well	215
58	Wnt3 (GeneID 22415)	1	0.71	enough cells in well	394
